The supplement of paper PMC10849652
Some of the results follow.

Amino acid sequences for entries named in this document (tags omitted). A change or cut given only in a name is not applied to a line headed by its entry.
UniProt Q9Y5J7: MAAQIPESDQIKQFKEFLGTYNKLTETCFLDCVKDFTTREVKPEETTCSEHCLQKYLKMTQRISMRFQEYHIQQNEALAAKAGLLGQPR
UniProt Q9UPU7: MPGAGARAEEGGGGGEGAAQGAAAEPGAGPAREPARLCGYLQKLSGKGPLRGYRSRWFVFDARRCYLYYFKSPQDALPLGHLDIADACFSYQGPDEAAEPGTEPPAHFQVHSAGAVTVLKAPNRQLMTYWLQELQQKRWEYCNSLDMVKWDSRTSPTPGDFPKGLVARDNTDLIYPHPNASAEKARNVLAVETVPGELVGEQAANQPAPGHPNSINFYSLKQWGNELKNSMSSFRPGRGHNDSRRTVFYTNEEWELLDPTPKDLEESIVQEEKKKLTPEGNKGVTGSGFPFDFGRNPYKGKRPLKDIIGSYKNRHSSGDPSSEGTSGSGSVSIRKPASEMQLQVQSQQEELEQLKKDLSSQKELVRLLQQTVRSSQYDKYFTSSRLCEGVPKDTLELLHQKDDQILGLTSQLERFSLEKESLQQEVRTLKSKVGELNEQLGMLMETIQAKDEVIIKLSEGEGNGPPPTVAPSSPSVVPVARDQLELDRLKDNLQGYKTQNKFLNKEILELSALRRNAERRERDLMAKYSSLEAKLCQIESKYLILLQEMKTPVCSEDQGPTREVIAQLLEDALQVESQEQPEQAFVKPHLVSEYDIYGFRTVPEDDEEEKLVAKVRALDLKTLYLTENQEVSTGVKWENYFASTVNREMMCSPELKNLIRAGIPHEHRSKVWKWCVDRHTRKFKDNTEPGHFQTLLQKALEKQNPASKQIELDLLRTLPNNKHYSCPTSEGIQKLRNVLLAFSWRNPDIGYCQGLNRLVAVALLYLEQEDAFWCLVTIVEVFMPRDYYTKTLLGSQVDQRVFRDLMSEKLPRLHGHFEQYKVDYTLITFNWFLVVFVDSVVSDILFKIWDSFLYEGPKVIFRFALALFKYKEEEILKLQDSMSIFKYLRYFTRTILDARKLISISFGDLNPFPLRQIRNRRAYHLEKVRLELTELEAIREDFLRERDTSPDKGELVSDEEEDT
UniProt Q9NWX6: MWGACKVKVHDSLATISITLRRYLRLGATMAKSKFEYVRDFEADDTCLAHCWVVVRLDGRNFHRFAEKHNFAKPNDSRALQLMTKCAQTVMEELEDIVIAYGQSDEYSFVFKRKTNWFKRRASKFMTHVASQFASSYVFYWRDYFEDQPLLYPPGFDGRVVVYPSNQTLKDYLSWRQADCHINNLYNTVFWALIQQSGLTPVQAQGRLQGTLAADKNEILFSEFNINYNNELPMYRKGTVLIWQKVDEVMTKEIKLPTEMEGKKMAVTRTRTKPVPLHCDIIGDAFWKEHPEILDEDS
UniProt O60220: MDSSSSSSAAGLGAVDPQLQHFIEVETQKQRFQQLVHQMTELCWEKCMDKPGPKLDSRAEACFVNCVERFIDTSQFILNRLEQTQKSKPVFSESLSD
UniProt Q6NUS6: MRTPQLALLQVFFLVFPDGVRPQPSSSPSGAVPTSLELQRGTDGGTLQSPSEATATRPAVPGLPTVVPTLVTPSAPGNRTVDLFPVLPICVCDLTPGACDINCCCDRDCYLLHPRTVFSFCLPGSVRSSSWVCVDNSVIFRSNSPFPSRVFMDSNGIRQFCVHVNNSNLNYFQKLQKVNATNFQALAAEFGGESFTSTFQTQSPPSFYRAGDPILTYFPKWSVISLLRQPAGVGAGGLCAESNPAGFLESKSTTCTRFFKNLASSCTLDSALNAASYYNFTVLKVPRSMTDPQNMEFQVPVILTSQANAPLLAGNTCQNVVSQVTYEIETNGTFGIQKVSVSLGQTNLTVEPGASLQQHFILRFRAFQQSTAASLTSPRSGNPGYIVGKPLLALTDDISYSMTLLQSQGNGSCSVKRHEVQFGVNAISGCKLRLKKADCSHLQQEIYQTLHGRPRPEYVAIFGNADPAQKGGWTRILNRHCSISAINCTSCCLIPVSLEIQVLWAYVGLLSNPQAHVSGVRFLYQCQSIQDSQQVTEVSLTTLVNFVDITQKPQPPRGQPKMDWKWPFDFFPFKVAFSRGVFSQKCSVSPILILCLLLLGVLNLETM
UniProt Q66K14, whole entry, looked up: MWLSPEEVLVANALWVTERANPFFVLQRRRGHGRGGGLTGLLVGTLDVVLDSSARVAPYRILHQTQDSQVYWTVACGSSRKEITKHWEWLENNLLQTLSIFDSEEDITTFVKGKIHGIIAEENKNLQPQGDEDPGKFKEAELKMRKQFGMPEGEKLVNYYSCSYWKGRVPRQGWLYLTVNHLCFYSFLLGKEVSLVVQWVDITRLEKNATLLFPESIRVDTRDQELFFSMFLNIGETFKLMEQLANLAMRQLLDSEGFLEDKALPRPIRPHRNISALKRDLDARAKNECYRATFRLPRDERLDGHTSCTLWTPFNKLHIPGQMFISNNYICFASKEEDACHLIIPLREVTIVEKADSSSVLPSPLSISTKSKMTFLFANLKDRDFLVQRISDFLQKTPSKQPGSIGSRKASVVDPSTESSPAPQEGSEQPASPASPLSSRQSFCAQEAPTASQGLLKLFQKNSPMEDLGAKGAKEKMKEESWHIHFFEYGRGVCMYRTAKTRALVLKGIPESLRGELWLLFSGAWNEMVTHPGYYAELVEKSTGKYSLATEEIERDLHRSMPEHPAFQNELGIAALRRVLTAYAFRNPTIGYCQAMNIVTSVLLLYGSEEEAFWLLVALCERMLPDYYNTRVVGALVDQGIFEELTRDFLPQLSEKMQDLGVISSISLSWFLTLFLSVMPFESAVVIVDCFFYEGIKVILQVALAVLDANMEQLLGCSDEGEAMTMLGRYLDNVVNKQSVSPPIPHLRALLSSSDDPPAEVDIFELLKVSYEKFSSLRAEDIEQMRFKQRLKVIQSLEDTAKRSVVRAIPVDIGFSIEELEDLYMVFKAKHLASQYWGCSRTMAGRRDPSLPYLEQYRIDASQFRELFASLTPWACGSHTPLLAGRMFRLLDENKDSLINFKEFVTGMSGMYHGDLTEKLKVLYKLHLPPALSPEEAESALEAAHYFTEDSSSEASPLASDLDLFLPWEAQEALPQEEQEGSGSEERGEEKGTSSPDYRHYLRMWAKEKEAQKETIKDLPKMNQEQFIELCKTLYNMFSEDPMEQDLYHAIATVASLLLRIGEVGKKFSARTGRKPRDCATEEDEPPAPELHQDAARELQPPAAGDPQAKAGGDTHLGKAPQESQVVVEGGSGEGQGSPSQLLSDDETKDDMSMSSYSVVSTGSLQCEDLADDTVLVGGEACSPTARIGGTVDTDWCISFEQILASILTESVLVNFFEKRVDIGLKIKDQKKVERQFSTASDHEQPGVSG
UniProt Q00059: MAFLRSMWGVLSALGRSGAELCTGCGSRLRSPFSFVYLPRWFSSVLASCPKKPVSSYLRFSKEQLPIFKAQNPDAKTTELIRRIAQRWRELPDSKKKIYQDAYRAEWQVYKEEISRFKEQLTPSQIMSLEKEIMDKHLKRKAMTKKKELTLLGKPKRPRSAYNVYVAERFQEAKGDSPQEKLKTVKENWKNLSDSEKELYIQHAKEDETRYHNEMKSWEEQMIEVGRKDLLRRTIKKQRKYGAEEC
UniProt Q9Y4R8, whole entry, looked up: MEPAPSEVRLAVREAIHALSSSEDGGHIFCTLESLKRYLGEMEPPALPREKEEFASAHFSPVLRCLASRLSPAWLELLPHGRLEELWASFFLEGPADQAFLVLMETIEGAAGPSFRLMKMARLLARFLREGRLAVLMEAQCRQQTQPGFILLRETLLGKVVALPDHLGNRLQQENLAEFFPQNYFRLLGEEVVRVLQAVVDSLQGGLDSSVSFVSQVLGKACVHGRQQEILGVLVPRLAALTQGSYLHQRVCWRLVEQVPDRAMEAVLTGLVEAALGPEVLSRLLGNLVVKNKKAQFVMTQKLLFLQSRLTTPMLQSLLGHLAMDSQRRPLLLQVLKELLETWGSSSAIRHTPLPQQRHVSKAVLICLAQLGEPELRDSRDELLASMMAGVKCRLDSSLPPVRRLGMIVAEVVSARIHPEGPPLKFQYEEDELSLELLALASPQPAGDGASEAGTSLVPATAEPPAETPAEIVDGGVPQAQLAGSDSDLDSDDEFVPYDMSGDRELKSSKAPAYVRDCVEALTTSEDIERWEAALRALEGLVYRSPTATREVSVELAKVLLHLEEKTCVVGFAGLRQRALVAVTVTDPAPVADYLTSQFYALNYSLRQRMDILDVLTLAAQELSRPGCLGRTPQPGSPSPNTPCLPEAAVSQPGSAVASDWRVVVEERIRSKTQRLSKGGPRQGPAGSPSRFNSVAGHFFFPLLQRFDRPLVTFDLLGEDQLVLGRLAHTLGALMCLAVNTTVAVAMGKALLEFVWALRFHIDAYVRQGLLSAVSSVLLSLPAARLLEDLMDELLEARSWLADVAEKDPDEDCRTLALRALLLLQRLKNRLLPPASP
UniProt Q9BVW5: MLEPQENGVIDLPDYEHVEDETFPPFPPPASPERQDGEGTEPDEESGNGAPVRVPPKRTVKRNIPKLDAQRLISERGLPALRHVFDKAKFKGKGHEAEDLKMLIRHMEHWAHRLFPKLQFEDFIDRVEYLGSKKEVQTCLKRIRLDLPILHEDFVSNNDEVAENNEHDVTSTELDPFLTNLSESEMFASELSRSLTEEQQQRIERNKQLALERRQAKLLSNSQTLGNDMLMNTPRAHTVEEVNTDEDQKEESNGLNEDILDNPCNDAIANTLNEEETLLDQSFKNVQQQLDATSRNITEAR
UniProt Q9HA65: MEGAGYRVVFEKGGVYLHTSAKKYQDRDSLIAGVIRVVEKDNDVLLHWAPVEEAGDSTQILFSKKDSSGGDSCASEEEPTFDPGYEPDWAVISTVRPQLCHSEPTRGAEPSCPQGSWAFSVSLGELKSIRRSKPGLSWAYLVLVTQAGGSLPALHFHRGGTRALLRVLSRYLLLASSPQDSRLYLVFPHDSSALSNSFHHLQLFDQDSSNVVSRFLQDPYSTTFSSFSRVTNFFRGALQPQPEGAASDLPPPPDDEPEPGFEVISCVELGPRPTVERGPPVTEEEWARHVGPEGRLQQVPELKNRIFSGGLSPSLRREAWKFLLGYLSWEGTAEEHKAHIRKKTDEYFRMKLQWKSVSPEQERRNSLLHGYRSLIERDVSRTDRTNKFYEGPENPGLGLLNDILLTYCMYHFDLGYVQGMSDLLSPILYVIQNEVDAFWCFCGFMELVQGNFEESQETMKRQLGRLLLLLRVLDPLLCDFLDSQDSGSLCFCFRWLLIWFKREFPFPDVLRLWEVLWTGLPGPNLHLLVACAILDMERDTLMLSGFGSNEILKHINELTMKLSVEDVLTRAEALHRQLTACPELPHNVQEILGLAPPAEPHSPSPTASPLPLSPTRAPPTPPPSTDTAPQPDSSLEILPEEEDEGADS
UniProt P35443: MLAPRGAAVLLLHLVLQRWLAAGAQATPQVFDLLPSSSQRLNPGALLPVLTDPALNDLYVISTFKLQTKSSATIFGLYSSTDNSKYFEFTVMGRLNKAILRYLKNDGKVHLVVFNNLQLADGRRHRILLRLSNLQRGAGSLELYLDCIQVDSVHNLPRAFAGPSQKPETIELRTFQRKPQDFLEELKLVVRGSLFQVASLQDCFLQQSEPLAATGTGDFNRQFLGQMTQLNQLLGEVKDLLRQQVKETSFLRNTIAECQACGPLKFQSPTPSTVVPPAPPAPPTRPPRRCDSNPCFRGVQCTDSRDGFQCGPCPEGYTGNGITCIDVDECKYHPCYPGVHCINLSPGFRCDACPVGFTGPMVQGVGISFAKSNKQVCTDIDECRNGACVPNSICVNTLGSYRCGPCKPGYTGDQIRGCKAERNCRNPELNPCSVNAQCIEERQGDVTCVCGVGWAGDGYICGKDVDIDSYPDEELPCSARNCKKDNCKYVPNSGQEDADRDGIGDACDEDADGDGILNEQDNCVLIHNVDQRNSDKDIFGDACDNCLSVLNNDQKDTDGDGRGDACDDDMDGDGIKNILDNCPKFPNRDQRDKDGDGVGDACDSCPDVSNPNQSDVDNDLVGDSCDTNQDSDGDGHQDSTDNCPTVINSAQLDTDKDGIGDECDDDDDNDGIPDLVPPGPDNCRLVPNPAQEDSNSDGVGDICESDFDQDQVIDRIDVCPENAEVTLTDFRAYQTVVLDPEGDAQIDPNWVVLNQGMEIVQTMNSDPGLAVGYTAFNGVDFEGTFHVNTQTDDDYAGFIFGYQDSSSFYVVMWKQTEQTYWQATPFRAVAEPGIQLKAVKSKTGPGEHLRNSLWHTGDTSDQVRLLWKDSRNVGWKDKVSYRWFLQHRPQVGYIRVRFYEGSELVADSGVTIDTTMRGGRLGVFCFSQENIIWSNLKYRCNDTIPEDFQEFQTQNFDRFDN
UniProt Q9P0N9: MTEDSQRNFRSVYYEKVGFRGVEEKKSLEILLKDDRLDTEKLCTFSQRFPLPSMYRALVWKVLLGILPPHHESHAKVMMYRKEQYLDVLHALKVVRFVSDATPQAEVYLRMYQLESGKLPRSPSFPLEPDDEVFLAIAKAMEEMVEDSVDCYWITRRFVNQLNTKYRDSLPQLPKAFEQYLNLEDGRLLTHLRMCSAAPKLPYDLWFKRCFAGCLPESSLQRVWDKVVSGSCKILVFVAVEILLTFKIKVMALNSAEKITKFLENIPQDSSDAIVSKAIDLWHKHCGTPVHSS

Assays:
Test in all cases: log2 fold change, soluble protein after heating vs DMSO (PISA); higher = thermal stabilisation; K562 cells, 10 uM, 30 min; active = over 0.2 and 3.5 SD of the protein, either way, in both replicates (recomputed)
[1] = compound: C1=CC=C(C=C1)[C@H](COC2=CC3=C(C=C2)NC(=O)N3)NC(=O)C4=CC=CN(C4=O)CC5=CC(=C(C=C5)F)F
Summary of the method: (§1)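 For each measurement, 10 μM compound was applied for 30 min to K562 cells at 2×10^6 cells/mL. Aliquots were heated for 3 min across 48°C-58°C, pooled, and extracted in PBS with 0.5% NP-40 at 4°C; the supernatant after 21,000xg for 90 min was soluble protein. This was quantified by TMTpro 16plex LC-MS/MS with channel sums equalised, and thermal stability was reported relative to control samples from duplicates, on a log2 fold-change scale.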

[2] = compound: CC1=C(SC2=C1C(=N[C@H](C3=NN=C(N32)C)CC(=O)N)C4=CC=C(C=C4)Cl)C
Summary of the method: as §1

[3] = compound: CC1=C2C(=CC=C1)N=C(N(C2=O)C3=CC=CC=C3C)CN4C=NC5=C(N=CN=C54)N
Summary of the method: as §1

[4] = compound: Cc1sc2c(c1C)C(c1ccc(Cl)cc1)=N[C@@H](CC(=O)OC(C)(C)C)c1nnc(C)n1-2
Summary of the method: as §1

[5] = compound: c1ccc([C@@H]2C[C@H]2NC2CCNCC2)cc1
Summary of the method: as §1

Measured: log2 fold change

TIMM9 (UniProt Q9Y5J7)
inactive: [1] 0.016 | [2] 0.137 | [3] 0.081 | [4] -0.059 | [5] -0.082

TLCD4 (UniProt Q96MV1)
inactive: [1] 0.017 | [2] 0.028 | [3] -0.035 | [4] -0.059 | [5] 0.047

TECR (UniProt Q9NZ01)
inactive: [1] -0.015 | [2] 0.049 | [3] 0.033 | [4] -0.046 | [5] 0

TFPI (UniProt P10646)
inactive: [1] 0.138 | [2] -0.164 | [3] -0.002 | [4] 0.014 | [5] 0.04

THTPA (UniProt Q9BU02)
inactive: [1] -0.08 | [2] -0.002 | [3] 0.085 | [4] 0.012 | [5] 0.047

TGFBR1 isoform 2 (UniProt P36897)
inactive: [1] -0.001 | [2] 0.029 | [3] -0.047 | [4] -0.029 | [5] 0.026

TFB1M (UniProt Q8WVM0)
inactive: [1] -0.161 | [2] -0.214 | [3] -0.177 | [4] 0.116 | [5] -0.053

TBC1D2B (UniProt Q9UPU7)
inactive: [1] 0.119

THG1L (UniProt Q9NWX6)
inactive: [1] 0.014 | [2] 0.084 | [3] 0.036 | [4] 0.014 | [5] -0.017

TIMMDC1 (UniProt Q9NPL8)
inactive: [1] 0.014 | [2] -0.038 | [3] 0.006 | [4] 0.01 | [5] 0.057

TBRG4 (UniProt Q969Z0)
inactive: [1] -0.106 | [2] 0.022 | [3] 0.077 | [4] -0.049 | [5] -0.017

THEM6 (UniProt Q8WUY1)
inactive: [1] 0 | [2] 0.014 | [3] -0.037 | [4] -0.037 | [5] 0.015

TCF3 (UniProt P15923)
inactive: [1] -0.023 | [2] -0.062 | [3] 0.099 | [4] -0.004 | [5] 0.034

TIMM8A (UniProt O60220)
inactive: [1] 0.034 | [2] -0.055 | [3] -0.187 | [4] -0.052 | [5] -0.072

TLE3 isoform 4 (UniProt Q04726)
inactive: [1] 0.028 | [2] 0.033 | [3] 0.029 | [4] -0.051 | [5] 0.009

TJP2 isoform 7 (UniProt Q9UDY2)
inactive: [1] -0.03 | [2] 0.084 | [3] 0.081 | [4] 0.04 | [5] -0.044

TERF2IP (UniProt Q9NYB0)
inactive: [1] 0.003 | [2] 0.01 | [3] 0.004 | [4] -0.01 | [5] 0.066

TCTN3 (UniProt Q6NUS6)
inactive: [1] 0.045

TF (UniProt P02787)
inactive: [1] 0.111 | [2] -0.048 | [3] 0.063 | [4] 0.122 | [5] 0.264

TBC1D9B (UniProt Q66K14)
inactive: [1] -0.025 | [2] 0.093 | [3] 0.042 | [4] 0.02 | [5] -0.062

TFAM (UniProt Q00059)
inactive: [1] 0.062 | [2] -0.046 | [3] -0.018 | [4] 0.108 | [5] 0.009

TELO2 (UniProt Q9Y4R8)
inactive: [1] -0.031 | [2] -0.05 | [3] 0.037 | [4] 0.039 | [5] 0.005

TIPIN (UniProt Q9BVW5)
inactive: [1] 0.006 | [2] -0.006 | [3] 0.075 | [4] 0.024 | [5] 0.057

TBC1D17 (UniProt Q9HA65)
inactive: [1] 0.08 | [2] 0.005 | [3] 0.048 | [4] -0.172 | [5] -0.01

THBS4 (UniProt P35443)
inactive: [1] -0.091 | [2] -0.007 | [3] 0.138 | [4] -0.055 | [5] 0.06

TBC1D7 (UniProt Q9P0N9)
inactive: [1] -0.181

Two neighbouring records already listed, quoted:
THEM6 (UniProt Q8WUY1)
inactive: [1] 0 | [2] 0.014 | [3] -0.037 | [4] -0.037 | [5] 0.015

TCF3 (UniProt P15923)
inactive: [1] -0.023 | [2] -0.062 | [3] 0.099 | [4] -0.004 | [5] 0.034
